Reference: paper PMC5611679
Results are given in words; binding and its absence hold for the method and conditions named. In cells and extracts the contact can be indirect. A result given as binding can be weak or reduced; the word gives no strength.

By UniProt entry, the sequences of proteins in these tests, tags left out. Where a name states a change or a piece, a line headed by the entry shows the natural chain unless it says otherwise.
UniProt A0A097IC64: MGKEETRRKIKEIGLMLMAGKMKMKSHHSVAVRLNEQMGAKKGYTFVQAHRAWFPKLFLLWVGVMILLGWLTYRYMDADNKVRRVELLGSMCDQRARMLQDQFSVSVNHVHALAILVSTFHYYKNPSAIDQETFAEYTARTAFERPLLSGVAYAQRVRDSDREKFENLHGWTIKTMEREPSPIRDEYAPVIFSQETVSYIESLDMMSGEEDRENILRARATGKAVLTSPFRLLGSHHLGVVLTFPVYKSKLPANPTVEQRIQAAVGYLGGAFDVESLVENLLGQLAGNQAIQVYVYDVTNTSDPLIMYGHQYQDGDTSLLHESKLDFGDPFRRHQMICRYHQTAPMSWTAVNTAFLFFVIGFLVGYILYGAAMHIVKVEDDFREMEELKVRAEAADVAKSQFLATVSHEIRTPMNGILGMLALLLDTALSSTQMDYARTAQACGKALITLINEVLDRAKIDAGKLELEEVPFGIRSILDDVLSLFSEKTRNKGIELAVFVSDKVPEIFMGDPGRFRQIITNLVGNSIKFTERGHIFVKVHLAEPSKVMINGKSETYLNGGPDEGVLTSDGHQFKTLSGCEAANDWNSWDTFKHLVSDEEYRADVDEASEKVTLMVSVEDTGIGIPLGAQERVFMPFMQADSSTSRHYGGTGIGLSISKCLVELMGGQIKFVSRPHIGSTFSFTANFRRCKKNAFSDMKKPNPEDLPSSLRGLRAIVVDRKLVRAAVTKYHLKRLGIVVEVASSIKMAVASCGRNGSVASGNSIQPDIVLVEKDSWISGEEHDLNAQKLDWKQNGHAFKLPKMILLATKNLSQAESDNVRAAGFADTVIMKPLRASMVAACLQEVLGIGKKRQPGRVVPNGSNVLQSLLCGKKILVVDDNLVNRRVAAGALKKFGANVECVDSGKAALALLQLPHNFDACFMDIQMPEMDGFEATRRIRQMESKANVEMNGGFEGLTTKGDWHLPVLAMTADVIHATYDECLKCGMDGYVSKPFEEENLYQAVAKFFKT

How the values were obtained:
Assay in all cases: split reporter; BiFC in transiently co-transformed C. roseus cells (particle bombardment); MdCHK-YFP^N and MdCHK-YFP^C fusions, both combinations; triplicates with three independent plasmid clones
[1] = molecular target: Malus domestica CHASE-containing histidine kinase 4a (MdCHK4a) (Malus domestica)
[2] = molecular target: Malus domestica CHASE-containing histidine kinase 4b (MdCHK4b) (Malus domestica)
[3] = molecular target: Malus domestica CHASE-containing histidine kinase 2 (MdCHK2) (Malus domestica)

| binding [1] | binding [2] | binding [3] | Substance |
| --- | --- | --- | --- |
| binds | binds | – | Malus domestica CHASE-containing histidine kinase 2 (MdCHK2) (from UniProt A0A097IC59) (receptor) |
| binds | binds | binds | Malus domestica CHASE-containing histidine kinase 3a (MdCHK3a) (from UniProt A0A097IC83) (receptor) |
| binds | binds | binds | Malus domestica CHASE-containing histidine kinase 3b (MdCHK3b) (from UniProt A0A097IC99) (receptor) |
| – | binds | – | Malus domestica CHASE-containing histidine kinase 4a (MdCHK4a) (from UniProt A0A097IC64) (receptor) |
